No constants are given. Whether binding was seen depends on the method and setting. Binding seen in cells or lysates may run through a third protein.
Target: DEAD box helicase 6 (DDX6), endogenous feline (domestic cat (endogenous in G355-5))
Experiment: co-IP

B1: FIV CO-Gag MACA (domain or fragment, UniProt P16087 1-357)
chain: MGNGQGRDWKMAIKRCSNVAVGVGGKSKKFGEGNFRWAIRMANVSTGREPGDIPETLDQLRLVICDLQERREKFGSSKEIDMAIVTLKVFAVAGLLNMTVSTAAAAENMYSQMGLDTRPSMKEAGGKEEGPPQAYPIQTVNGVPQYVALDPKMVSIFMEKAREGLGGEEVQLWFTAFSANLTPTDMATLIMAAPGCAADKEILDESLKQLTAEYDRTHPPDAPRPLPYFTAAEIMGIGLTQEQQAEARFAPARMQCRAWYLEALGKLAAIKAKSPRAVQLRQGAKEDYSSFIDRLFAQIDQEQNTAEVKLYLKQSLSIANANADCKKAMSHLKPESTLEEKLRACQEIGSPGYKMQL
Question: B1 was tested. Which binding did it give?
Answer: no binding

From doi:10.1101/183848
